The source gives many values for each of these; only a part stands here.
Test: In vivo individual difference analysis: individual plasma concentration versus time in rats (Example 8)
Design: species or system SD rats
Details: intragastric 1 mg/kg, listed as Phosphate of Compound of Formula I
Description: Compound of Formula I and salts thereof (sulfate, hydrochloride salt, phosphate, maleate), supplied by Shanghai Jingxin Biopharmaceutical Co., Ltd. • Strain: SD rats; Gender: male; Body weight: about 250 grams; Source: shanghai Jiesijie Experimental Animal Co., Ltd Route: single intragastric administration; Capacity: measured in 10 mL/kg body weight Preparation: weighing appropriate amount of the free base or salt of the compound of Formula I, adding a small amount of 0.5% CMC-Na to grind, adding 0.5% CMC-Na to the volume. The concentration is measured as the base. 20 SD rats were divided into 5 groups with 4 rats in each group, fasted for 12 h and drank freely before administration. […] The blood was anticoagulated with 1% heparin, the plasma was separated by 8000 rpm centrifugation for 4 min and stored at -40° C. for testing. LC-MS/MS Method. Pharmacokinetic parameters after administration in rats were calculated using a non-compartmental model of DAS 2.0 software.

CN(C)C(=O)N[C@H]1CC[C@H](CCN2CCN(c3cccc4ccsc34)CC2)CC1 [Example 4, N′-[trans-4-[2-[7-(benzo[b]thiophene)-7-piperazinyl]ethyl]cyclohexyl]-N,N-dimethylurea]
Plasma Concentrations of Compound of Formula I (5 min after administration, Mean ± SD): 6.65 ± 5.31 ng/mL | Plasma Concentrations of Compound of Formula I (5 min after administration, rat 1♂): 5.28 ng/mL | Plasma Concentrations of Compound of Formula I (5 min after administration, rat 2♂): 3.26 ng/mL | Plasma Concentrations of Compound of Formula I (5 min after administration, rat 3♂): 14.5 ng/mL | Plasma Concentrations of Compound of Formula I (5 min after administration, rat 4♂): 3.54 ng/mL | Plasma Concentrations of Compound of Formula I (0.167 h after administration, Mean ± SD): 13.3 ± 2.09 ng/mL | Plasma Concentrations of Compound of Formula I (0.167 h after administration, rat 1♂): 10.5 ng/mL | Plasma Concentrations of Compound of Formula I (0.167 h after administration, rat 2♂): 13.0 ng/mL | Plasma Concentrations of Compound of Formula I (0.167 h after administration, rat 3♂): 14.8 ng/mL | Plasma Concentrations of Compound of Formula I (0.167 h after administration, rat 4♂): 15.0 ng/mL | Plasma Concentrations of Compound of Formula I (0.333 h after administration, Mean ± SD): 44.0 ± 18.5 ng/mL | Plasma Concentrations of Compound of Formula I (0.333 h after administration, rat 1♂): 69.7 ng/mL | Plasma Concentrations of Compound of Formula I (0.333 h after administration, rat 2♂): 25.9 ng/mL | Plasma Concentrations of Compound of Formula I (0.333 h after administration, rat 3♂): 42.5 ng/mL | Plasma Concentrations of Compound of Formula I (0.333 h after administration, rat 4♂): 37.9 ng/mL | Plasma Concentrations of Compound of Formula I (0.5 h after administration, Mean ± SD): 45.4 ± 19.2 ng/mL | Plasma Concentrations of Compound of Formula I (0.5 h after administration, rat 1♂): 66.7 ng/mL | Plasma Concentrations of Compound of Formula I (0.5 h after administration, rat 2♂): 23.2 ng/mL | Plasma Concentrations of Compound of Formula I (0.5 h after administration, rat 3♂): 54.7 ng/mL | Plasma Concentrations of Compound of Formula I (0.5 h after administration, rat 4♂): 37.0 ng/mL | Plasma Concentrations of Compound of Formula I (1 h after administration, Mean ± SD): 46.8 ± 11.4 ng/mL | Plasma Concentrations of Compound of Formula I (1 h after administration, rat 1♂): 51.1 ng/mL | Plasma Concentrations of Compound of Formula I (1 h after administration, rat 2♂): 34.7 ng/mL | Plasma Concentrations of Compound of Formula I (1 h after administration, rat 3♂): 60.6 ng/mL | Plasma Concentrations of Compound of Formula I (1 h after administration, rat 4♂): 40.8 ng/mL | Plasma Concentrations of Compound of Formula I (2 h after administration, Mean ± SD): 25.3 ± 8.57 ng/mL | Plasma Concentrations of Compound of Formula I (2 h after administration, rat 1♂): 25.9 ng/mL | Plasma Concentrations of Compound of Formula I (2 h after administration, rat 2♂): 20.0 ng/mL | Plasma Concentrations of Compound of Formula I (2 h after administration, rat 3♂): 37.2 ng/mL | Plasma Concentrations of Compound of Formula I (2 h after administration, rat 4♂): 18.2 ng/mL | Plasma Concentrations of Compound of Formula I (4 h after administration, Mean ± SD): 10.4 ± 3.07 ng/mL | Plasma Concentrations of Compound of Formula I (4 h after administration, rat 1♂): 10.4 ng/mL | Plasma Concentrations of Compound of Formula I (4 h after administration, rat 2♂): 10.7 ng/mL | Plasma Concentrations of Compound of Formula I (4 h after administration, rat 3♂): 13.9 ng/mL | Plasma Concentrations of Compound of Formula I (4 h after administration, rat 4♂): 6.41 ng/mL | Plasma Concentrations of Compound of Formula I (6 h after administration, Mean ± SD): 3.63 ± 1.19 ng/mL | Plasma Concentrations of Compound of Formula I (6 h after administration, rat 1♂): 3.65 ng/mL | Plasma Concentrations of Compound of Formula I (6 h after administration, rat 2♂): 3.25 ng/mL | Plasma Concentrations of Compound of Formula I (6 h after administration, rat 3♂): 5.23 ng/mL | Plasma Concentrations of Compound of Formula I (6 h after administration, rat 4♂): 2.40 ng/mL | Plasma Concentrations of Compound of Formula I (9 h after administration, Mean ± SD): 1.48 ± 0.382 ng/mL | Plasma Concentrations of Compound of Formula I (9 h after administration, rat 1♂): 1.45 ng/mL | Plasma Concentrations of Compound of Formula I (9 h after administration, rat 2♂): 1.61 ng/mL | Plasma Concentrations of Compound of Formula I (9 h after administration, rat 3♂): 1.89 ng/mL | Plasma Concentrations of Compound of Formula I (9 h after administration, rat 4♂): 0.978 ng/mL | Plasma Concentrations of Compound of Formula I (12 h after administration, Mean ± SD): 0.758 ± 0.142 ng/mL | Plasma Concentrations of Compound of Formula I (12 h after administration, rat 1♂): 0.728 ng/mL | Plasma Concentrations of Compound of Formula I (12 h after administration, rat 2♂): 0.799 ng/mL | Plasma Concentrations of Compound of Formula I (12 h after administration, rat 3♂): 0.923 ng/mL | Plasma Concentrations of Compound of Formula I (12 h after administration, rat 4♂): 0.582 ng/mL | Plasma Concentrations of Compound of Formula I (24 h after administration, Mean ± SD): 0.197 ± 0.0647 ng/mL | Plasma Concentrations of Compound of Formula I (24 h after administration, rat 1♂): 0.175 ng/mL | Plasma Concentrations of Compound of Formula I (24 h after administration, rat 2♂): 0.274 ng/mL | Plasma Concentrations of Compound of Formula I (24 h after administration, rat 3♂): 0.216 ng/mL | Plasma Concentrations of Compound of Formula I (24 h after administration, rat 4♂): 0.121 ng/mL

— patent US20210309631A1, “SALT OF CYCLOHEXANE DERIVATIVE” (priority 2018, published 2021)
